From patent EP1057484A1, “CELL DEATH INHIBITORS” (priority 1998, dated 1999)
At least one structure is not confirmed: it was looked up by name or label, or the drawing left a doubt.

Tested on: Porcine Ovarian Granulosa Cells
Assay: Test Example 7: inhibition of SNP-induced apoptosis of undifferentiated POGC
Type: cell-based
Settings: method of Test Example 7 (SNP 0.5 mM); concentration as high as 30 µM

In the case of `Cn1cnc2c(NCc3ccccc3)nc(NCCO)nc21` [olomoucine, reference compound], the “Inhibitory action on apoptosis” value is reported as “no inhibitory action on apoptosis”.
